Results are given in words; binding and its absence hold for the method and conditions named. In cells and extracts the contact can be indirect. Some results given as binding are weak or reduced against the parent protein; the word gives no strength. Where a sequence is shown, tags or fusion partners need not be part of it. Values belong to the molecule of their own block, whether it stands above or below them.
Assays:
GFP-tagged CD151 (human) [1] = biological target: T1, GFP-tagged CD151 (human) (UniProt P48509); experiment: co-IP; BJAB cells transiently transfected with CD151-GFP and ALFA-tagged ITGB2, lysed in 1% IGEPAL CA-630; IP by GFP or by the ALFA tag (selector ST beads); western blot for GFP-tag or ALFA-tag
T1 sequence: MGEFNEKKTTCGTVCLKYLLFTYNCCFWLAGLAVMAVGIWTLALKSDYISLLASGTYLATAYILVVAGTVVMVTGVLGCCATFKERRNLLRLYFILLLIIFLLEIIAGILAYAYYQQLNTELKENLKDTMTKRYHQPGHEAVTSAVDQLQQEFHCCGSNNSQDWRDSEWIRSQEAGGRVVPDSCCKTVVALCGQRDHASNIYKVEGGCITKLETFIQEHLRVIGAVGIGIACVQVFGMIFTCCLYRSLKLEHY

Sequences of proteins named here, by UniProt entry; tags and fusion partners are left off. Residues count along the entry.
UniProt P05107, residues 23-769: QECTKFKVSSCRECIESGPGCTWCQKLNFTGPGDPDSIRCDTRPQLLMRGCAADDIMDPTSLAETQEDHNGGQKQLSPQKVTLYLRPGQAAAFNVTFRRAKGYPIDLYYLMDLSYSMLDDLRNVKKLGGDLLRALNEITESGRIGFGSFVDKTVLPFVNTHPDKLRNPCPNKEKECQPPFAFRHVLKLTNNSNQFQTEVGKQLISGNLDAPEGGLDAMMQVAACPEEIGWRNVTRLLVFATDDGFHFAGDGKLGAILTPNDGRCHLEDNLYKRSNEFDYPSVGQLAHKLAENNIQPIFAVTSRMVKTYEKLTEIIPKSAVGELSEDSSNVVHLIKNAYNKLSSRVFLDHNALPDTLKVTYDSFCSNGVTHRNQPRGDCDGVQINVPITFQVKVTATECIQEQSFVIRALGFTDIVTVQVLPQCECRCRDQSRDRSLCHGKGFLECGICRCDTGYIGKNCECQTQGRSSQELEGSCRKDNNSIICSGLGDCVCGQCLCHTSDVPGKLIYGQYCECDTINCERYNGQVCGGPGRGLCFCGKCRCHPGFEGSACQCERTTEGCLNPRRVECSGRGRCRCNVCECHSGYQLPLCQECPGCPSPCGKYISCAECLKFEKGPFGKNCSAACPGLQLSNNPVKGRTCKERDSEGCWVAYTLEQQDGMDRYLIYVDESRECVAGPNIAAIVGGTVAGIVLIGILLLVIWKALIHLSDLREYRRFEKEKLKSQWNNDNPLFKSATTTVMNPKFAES

GFP-tagged CD151 (human) [2] = biological target: T1, GFP-tagged CD151 (human); experiment: co-IP; GFP-Trap magnetic agarose on lysates of BJAB CD151-GFP cells (BJAB WT as control); 1% IGEPAL, 25 mM Tris-HCl pH 7.5, 150 mM NaCl, 5 mM MgCl2, 2 h at 4°C; blot for endogenous ITGB2; also with lysis buffer supplemented with Ca2+/Mg2+, Mg2+ or EDTA
ALFA-tagged ITGB2 = ALFA-tagged ITGB2 (UniProt P05107); experiment: co-IP; BJAB cells transiently transfected with CD151-GFP and ALFA-tagged ITGB2, lysed in 1% IGEPAL CA-630; IP by GFP or by the ALFA tag (selector ST beads); western blot for GFP-tag or ALFA-tag

binding (GFP-tagged CD151 (human) [1]): binds
Molecule: ALFA-tagged ITGB2 (from UniProt P05107 23-769)

binding (GFP-tagged CD151 (human) [2]): binds
Molecule: endogenous integrin beta 2 (ITGB2) (from UniProt P05107 23-769)

binding (ALFA-tagged ITGB2): binds
B1: GFP-tagged CD151 (protein, UniProt P48509 1-253)
chain: MGEFNEKKTTCGTVCLKYLLFTYNCCFWLAGLAVMAVGIWTLALKSDYISLLASGTYLATAYILVVAGTVVMVTGVLGCCATFKERRNLLRLYFILLLIIFLLEIIAGILAYAYYQQLNTELKENLKDTMTKRYHQPGHEAVTSAVDQLQQEFHCCGSNNSQDWRDSEWIRSQEAGGRVVPDSCCKTVVALCGQRDHASNIYKVEGGCITKLETFIQEHLRVIGAVGIGIACVQVFGMIFTCCLYRSLKLEHY

Source: article PMC12137850
